Measured values: publication PMC6160419

The chains behind the UniProt entries cited, without tags or fusion partners.
UniProt O75179: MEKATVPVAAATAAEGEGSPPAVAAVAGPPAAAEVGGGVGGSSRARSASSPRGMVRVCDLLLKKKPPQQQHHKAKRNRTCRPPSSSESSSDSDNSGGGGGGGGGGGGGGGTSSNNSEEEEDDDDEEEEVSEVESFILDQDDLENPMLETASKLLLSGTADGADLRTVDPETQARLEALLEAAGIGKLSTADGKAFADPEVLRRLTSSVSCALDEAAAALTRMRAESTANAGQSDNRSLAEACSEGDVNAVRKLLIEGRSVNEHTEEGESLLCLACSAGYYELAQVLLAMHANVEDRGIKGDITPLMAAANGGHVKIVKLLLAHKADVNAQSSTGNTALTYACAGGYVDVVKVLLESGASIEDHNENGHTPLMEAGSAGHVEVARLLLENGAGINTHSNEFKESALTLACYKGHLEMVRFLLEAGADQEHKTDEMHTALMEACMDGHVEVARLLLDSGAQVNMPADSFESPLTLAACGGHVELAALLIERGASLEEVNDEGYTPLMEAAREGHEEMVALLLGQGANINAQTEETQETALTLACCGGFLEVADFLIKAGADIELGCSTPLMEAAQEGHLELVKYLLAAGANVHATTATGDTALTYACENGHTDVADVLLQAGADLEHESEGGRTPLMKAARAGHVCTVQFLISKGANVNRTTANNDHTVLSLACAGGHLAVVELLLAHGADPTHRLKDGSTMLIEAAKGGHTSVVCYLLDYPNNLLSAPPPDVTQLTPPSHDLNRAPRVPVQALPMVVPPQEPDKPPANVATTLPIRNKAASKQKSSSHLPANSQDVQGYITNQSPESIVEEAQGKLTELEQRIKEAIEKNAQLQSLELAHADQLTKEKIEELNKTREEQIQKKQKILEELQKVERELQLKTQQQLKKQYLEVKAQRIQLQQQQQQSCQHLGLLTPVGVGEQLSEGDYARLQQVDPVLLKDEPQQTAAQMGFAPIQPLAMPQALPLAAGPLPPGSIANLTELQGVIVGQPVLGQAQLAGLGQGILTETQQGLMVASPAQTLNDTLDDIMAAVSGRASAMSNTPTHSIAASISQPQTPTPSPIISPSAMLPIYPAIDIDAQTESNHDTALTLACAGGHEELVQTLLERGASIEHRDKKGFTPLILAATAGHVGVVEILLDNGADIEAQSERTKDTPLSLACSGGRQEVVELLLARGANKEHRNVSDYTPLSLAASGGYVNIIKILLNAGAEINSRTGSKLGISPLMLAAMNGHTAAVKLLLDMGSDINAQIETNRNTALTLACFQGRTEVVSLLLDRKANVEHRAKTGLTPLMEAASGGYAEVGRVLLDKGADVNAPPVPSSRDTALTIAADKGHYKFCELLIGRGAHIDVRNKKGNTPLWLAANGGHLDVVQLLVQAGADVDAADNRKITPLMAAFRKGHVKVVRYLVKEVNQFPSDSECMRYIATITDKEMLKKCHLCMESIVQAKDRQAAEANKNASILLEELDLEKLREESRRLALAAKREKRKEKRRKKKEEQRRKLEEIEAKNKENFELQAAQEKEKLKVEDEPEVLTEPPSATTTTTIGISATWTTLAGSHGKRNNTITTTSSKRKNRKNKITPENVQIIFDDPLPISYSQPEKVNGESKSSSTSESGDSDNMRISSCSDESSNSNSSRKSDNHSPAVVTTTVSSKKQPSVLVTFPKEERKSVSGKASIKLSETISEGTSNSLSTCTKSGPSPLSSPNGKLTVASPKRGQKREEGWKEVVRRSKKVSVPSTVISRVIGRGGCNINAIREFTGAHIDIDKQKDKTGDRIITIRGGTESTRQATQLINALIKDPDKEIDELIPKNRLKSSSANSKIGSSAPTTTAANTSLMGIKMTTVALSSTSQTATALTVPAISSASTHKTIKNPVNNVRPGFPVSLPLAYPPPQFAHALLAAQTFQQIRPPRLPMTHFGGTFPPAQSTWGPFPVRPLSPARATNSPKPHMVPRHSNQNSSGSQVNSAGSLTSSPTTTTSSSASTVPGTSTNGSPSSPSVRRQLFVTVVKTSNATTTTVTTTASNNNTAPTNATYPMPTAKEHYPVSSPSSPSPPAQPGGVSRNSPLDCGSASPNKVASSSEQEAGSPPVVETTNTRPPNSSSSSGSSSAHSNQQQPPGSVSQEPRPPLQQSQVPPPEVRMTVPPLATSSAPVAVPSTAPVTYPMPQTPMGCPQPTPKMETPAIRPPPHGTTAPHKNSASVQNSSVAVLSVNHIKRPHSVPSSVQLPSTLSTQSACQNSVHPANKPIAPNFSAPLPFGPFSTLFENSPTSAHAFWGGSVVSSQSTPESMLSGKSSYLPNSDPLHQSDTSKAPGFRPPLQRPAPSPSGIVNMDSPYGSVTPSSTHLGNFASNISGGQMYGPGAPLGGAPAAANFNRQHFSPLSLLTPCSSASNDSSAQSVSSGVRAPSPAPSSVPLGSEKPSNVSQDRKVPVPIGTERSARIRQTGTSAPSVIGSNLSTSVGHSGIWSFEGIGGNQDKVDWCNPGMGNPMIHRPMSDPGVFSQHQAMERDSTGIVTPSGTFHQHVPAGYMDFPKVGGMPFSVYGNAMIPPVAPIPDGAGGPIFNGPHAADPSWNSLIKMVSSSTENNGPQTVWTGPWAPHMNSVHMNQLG
UniProt Q9H5H4: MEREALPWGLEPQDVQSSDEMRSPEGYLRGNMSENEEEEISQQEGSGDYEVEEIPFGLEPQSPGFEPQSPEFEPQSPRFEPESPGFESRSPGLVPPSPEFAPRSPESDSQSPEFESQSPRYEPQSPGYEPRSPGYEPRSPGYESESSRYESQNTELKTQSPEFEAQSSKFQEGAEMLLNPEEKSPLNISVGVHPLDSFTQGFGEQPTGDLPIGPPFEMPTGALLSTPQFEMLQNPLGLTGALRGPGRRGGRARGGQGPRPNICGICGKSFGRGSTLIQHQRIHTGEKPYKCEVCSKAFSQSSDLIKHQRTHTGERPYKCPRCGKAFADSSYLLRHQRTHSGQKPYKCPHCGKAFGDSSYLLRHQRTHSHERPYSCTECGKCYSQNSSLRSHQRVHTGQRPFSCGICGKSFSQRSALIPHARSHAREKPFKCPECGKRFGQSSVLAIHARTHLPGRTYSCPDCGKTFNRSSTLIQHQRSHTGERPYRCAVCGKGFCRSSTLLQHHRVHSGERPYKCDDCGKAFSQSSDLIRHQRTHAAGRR
UniProt Q9P2B7: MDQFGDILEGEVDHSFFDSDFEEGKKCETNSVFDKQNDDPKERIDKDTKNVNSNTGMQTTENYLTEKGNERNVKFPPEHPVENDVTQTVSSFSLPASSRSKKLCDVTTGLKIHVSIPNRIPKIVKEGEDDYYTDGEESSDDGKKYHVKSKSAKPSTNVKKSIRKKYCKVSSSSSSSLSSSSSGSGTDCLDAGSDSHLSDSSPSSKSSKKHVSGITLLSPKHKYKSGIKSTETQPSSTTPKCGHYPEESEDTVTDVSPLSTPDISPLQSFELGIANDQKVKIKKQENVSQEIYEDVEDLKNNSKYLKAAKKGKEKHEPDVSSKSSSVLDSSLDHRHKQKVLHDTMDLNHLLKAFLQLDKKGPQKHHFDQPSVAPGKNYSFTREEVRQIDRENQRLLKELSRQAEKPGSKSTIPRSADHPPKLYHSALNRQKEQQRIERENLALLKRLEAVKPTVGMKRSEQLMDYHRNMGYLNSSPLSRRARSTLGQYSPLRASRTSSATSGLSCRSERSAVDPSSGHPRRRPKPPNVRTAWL

Molecular target: T1, FAM13A (human) (UniProt O94988)
T1 sequence: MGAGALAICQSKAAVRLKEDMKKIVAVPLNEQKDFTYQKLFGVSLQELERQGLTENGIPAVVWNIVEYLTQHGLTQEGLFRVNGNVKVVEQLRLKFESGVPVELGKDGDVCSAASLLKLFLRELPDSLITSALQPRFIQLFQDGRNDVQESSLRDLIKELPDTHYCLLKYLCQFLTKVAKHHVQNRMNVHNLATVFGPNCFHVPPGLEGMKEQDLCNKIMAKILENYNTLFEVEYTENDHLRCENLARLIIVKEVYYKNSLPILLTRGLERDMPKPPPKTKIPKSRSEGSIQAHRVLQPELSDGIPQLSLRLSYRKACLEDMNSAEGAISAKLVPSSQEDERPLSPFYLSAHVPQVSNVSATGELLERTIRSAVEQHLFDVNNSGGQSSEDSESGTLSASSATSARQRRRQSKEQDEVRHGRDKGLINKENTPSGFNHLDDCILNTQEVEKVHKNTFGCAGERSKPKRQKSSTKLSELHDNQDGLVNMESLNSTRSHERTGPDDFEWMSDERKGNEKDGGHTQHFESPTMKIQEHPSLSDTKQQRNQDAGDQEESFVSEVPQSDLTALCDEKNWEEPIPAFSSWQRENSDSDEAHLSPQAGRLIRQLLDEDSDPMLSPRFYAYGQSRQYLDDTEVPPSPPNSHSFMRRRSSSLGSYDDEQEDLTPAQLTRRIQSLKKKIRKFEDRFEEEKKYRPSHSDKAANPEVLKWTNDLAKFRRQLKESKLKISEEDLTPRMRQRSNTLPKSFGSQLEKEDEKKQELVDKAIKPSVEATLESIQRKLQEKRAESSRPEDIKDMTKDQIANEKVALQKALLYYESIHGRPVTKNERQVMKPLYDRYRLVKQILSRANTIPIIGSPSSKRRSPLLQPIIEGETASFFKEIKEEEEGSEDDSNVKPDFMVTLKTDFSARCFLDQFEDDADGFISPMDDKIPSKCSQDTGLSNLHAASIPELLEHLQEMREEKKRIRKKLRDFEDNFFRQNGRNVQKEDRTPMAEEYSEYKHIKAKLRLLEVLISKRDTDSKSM
Experiment: affinity purification with mass spectrometry; pull-down assay with FAM13A as bait, affinity purification-mass spectrometry; no conditions told; the methods say it was performed previously (ref. 23)

Row | Molecule | binding
1 | ANKRD17 (from UniProt O75179 1-2603) | binds
2 | ZNF768 (from UniProt Q9H5H4 1-540) | binds
3 | KIAA1430 (from UniProt Q9P2B7 1-532) | binds
4 | GPC4 (protein, UniProt O75487 19-529) ALLAAELKSKSCSEVRRLYVSKGFNKNDAPLHEINGDHLKICPQGSTCCSQEMEEKYSLQSKDDFKSVVSEQCNHLQAVFASRYKKFDEFFKELLENAEKSLNDMFVKTYGHLYMQNSELFKDLFVELKRYYVVGNVNLEEMLNDFWARLLERMFRLVNSQYHFTDEYLECVSKYTEQLKPFGDVPRKLKLQVTRAFVAARTFAQGLAVAGDVVSKVSVVNPTAQCTHALLKMIYCSHCRGLVTVKPCYNYCSNIMRGCLANQGDLDFEWNNFIDAMLMVAERLEGPFNIESVMDPIDVKISDAIMNMQDNSVQVSQKVFQGCGPPKPLPAGRISRSISESAFSARFRPHHPEERPTTAAGTSLDRLVTDVKEKLKQAKKFWSSLPSNVCNDERMAAGNGNEDDCWNGKGKSRYLFAVTGNGLANQGNNPEVQVDTSKPDILILRQIMALRVMTSKMKNAYNGNDVDFFDISDESSGEGSGSGCEYQQCPSEFDYNATDHAGKSANEKADS | binds
5 | ESF1 (protein, UniProt Q9H501 1-851) MSSKQEIMSDQRFRRVAKDPRFWEMPEKDRKVKIDKRFRAMFHDKKFKLNYAVDKRGRPISHSTTEDLKRFYDLSDSDSNLSGEDSKALSQKKIKKKKTQTKKEIDSKNLVEKKKETKKANHKGSENKTDLDNSIGIKKMKTSCKFKIDSNISPKKDSKEFTQKNKKEKKNIVQHTTDSSLEEKQRTLDSGTSEIVKSPRIECSKTRREMQSVVQLIMTRDSDGYENSTDGEMCDKDALEEDSESVSEIGSDEESENEITSVGRASGDDDGSEDDEEEDEDEEEDEDEDSEDDDKSDSGPDLARGKGNIETSSEDEDDTADLFPEESGFEHAWRELDKDAPRADEITRRLAVCNMDWDRLKAKDLLALFNSFKPKGGVIFSVKIYPSEFGKERMKEEQVQGPVELLSIPEDAPEKDWTSREKLRDYQFKRLKYYYAVVDCDSPETASKIYEDCDGLEFESSCSFIDLRFIPDDITFDDEPKDVASEVNLTAYKPKYFTSAAMGTSTVEITWDETDHERITMLNRKFKKEELLDMDFQAYLASSSEDEEEIEEELQGDDGVNVEEDGKTKKSQKDDEEQIAKYRQLLQVIQEKEKKGKENDMEMEIKWVPGLKESAEEMVKNKLEGKDKLTPWEQFLEKKKEKKRLKRKQKALAEEASEEELPSDVDLNDPYFAEEVKQIGINKKSVKSAKDGTSPEEEIEIERQKAEMALLMMDEDEDSKKHFNYNKIVEHQNLSKKKKKQLMKKKELIEDDFEVNVNDARFQAMYTSHLFNLDPSDPNFKKTKAMEKILEEKARQRERKEQELTQAIKKKESEIEKESQRKSIDPALSMLIKSIKTKTEQFQARKKQKVK | binds
6 | OSBPL8 (protein, UniProt Q9BZF1 1-889) MEGGLADGEPDRTSLLGDSKDVLGPSTVVANSDESQLLTPGKMSQRQGKEAYPTPTKDLHQPSLSPASPHSQGFERGKEDISQNKDESSLSMSKSKSESKLYNGSEKDSSTSSKLTKKESLKVQKKNYREEKKRATKELLSTITDPSVIVMADWLKIRGTLKSWTKLWCVLKPGVLLIYKTQKNGQWVGTVLLNACEIIERPSKKDGFCFKLFHPLEQSIWAVKGPKGEAVGSITQPLPSSYLIIRATSESDGRCWMDALELALKCSSLLKRTMIREGKEHDLSVSSDSTHVTFYGLLRANNLHSGDNFQLNDSEIERQHFKDQDMYSDKSDKENDQEHDESDNEVMGKSEESDTDTSERQDDSYIEPEPVEPLKETTYTEQSHEELGEAGEASQTETVSEENKSLIWTLLKQVRPGMDLSKVVLPTFILEPRSFLDKLSDYYYHADFLSEAALEENPYFRLKKVVKWYLSGFYKKPKGLKKPYNPILGETFRCLWIHPRTNSKTFYIAEQVSHHPPISAFYVSNRKDGFCLSGSILAKSKFYGNSLSAILEGEARLTFLNRGEDYVMTMPYAHCKGILYGTMTLELGGTVNITCQKTGYSAILEFKLKPFLGSSDCVNQISGKLKLGKEVLATLEGHWDSEVFITDKKTDNSEVFWNPTPDIKQWRLIRHTVKFEEQGDFESEKLWQRVTRAINAKDQTEATQEKYVLEEAQRQAARDRKTKNEEWSCKLFELDPLTGEWHYKFADTRPWDPLNDMIQFEKDGVIQTKVKHRTPMVSVPKMKHKPTRQQKKVAKGYSSPEPDIQDSSGSEAQSVKPSTRRKKGIELGDIQSSIESIKQTQEEIKRNIMALRNHLVSSTPATDYFLQQKDYFIIFLLILLQVIINFMFK | binds
7 | AP3D1 (protein, UniProt O14617 1-1153) MALKMVKGSIDRMFDKNLQDLVRGIRNHKEDEAKYISQCIDEIKQELKQDNIAVKANAVCKLTYLQMLGYDISWAAFNIIEVMSASKFTFKRIGYLAASQSFHEGTDVIMLTTNQIRKDLSSPSQYDTGVALTGLSCFVTPDLARDLANDIMTLMSHTKPYIRKKAVLIMYKVFLKYPESLRPAFPRLKEKLEDPDPGVQSAAVNVICELARRNPKNYLSLAPLFFKLMTSSTNNWVLIKIIKLFGALTPLEPRLGKKLIEPLTNLIHSTSAMSLLYECVNTVIAVLISLSSGMPNHSASIQLCVQKLRILIEDSDQNLKYLGLLAMSKILKTHPKSVQSHKDLILQCLDDKDESIRLRALDLLYGMVSKKNLMEIVKKLMTHVDKAEGTTYRDELLTKIIDICSQSNYQYITNFEWYISILVELTRLEGTRHGHLIAAQMLDVAIRVKAIRKFAVSQMSALLDSAHLLASSTQRNGICEVLYAAAWICGEFSEHLQEPHHTLEAMLRPRVTTLPGHIQAVYVQNVVKLYASILQQKEQAGEAEGAQAVTQLMVDRLPQFVQSADLEVQERASCILQLVKHIQKLQAKDVPVAEEVSALFAGELNPVAPKAQKKVPVPEGLDLDAWINEPLSDSESEDERPRAVFHEEEQRRPKHRPSEADEEELARRREARKQEQANNPFYIKSSPSPQKRYQDTPGVEHIPVVQIDLSVPLKVPGLPMSDQYVKLEEERRHRQKLEKDKRRKKRKEKEKKGKRRHSSLPTESDEDIAPAQQVDIVTEEMPENALPSDEDDKDPNDPYRALDIDLDKPLADSEKLPIQKHRNTETSKSPEKDVPMVEKKSKKPKKKEKKHKEKERDKEKKKEKEKKKSPKPKKKKHRKEKEERTKGKKKSKKQPPGSEEAAGEPVQNGAPEEEQLPPESSYSLLAENSYVKMTCDIRGSLQEDSQVTVAIVLENRSSSILKGMELSVLDSLNARMARPQGSSVHDGVPVPFQLPPGVSNEAQYVFTIQSIVMAQKLKGTLSFIAKNDEGATHEKLDFRLHFSCSSYLITTPCYSDAFAKLLESGDLSMSSIKVDGIRMSFQNLLAKICFHHHFSVVERVDSCASMYSRSIQGHHVCLLVKKGENSVSVDGKCSDSTLLSNLLEEMKATLAKC | binds
8 | NIP7 (protein, UniProt Q9Y221 1-180) MRPLTEEETRVMFEKIAKYIGENLQLLVDRPDGTYCFRLHNDRVYYVSEKIMKLAANISGDKLVSLGTCFGKFTKTHKFRLHVTALDYLAPYAKYKVWIKPGAEQSFLYGNHVLKSGLGRITENTSQYQGVVVYSMADIPLGFGVAAKSTQDCRKVDPMAIVVFHQADIGEYVRHEETLT | binds
9 | RBM34 (protein, UniProt P42696 1-430) MALEGMSKRKRKRSVQEGENPDDGVRGSPPEDYRLGQVASSLFRGEHHSRGGTGRLASLFSSLEPQIQPVYVPVPKQTIKKTKRNEEEESTSQIERPLSQEPAKKVKAKKKHTNAEKKLADRESALASADLEEEIHQKQGQKRKNSQPGVKVADRKILDDTEDTVVSQRKKIQINQEEERLKNERTVFVGNLPVTCNKKKLKSFFKEYGQIESVRFRSLIPAEGTLSKKLAAIKRKIHPDQKNINAYVVFKEESAATQALKRNGAQIADGFRIRVDLASETSSRDKRSVFVGNLPYKVEESAIEKHFLDCGSIMAVRIVRDKMTGIGKGFGYVLFENTDSVHLALKLNNSELMGRKLRVMRSVNKEKFKQQNSNPRLKNVSKPKQGLNFTSKTAEGHPKSLFIGEKAVLLKTKKKGQKKSGRPKKQRKQK | binds

These are yes or no findings as the source states them, for the method shown. Binding seen in cells or lysates may run through a third protein. Here binding means that the protein was enriched with, or labelled near, the bait; the list need not be complete.
